Results on five substances are retold here after publication PMC6300608.

The chains behind the UniProt entries cited, without tags or fusion partners. Where a name states a change or a piece, a line headed by the entry shows the natural chain unless it says otherwise.
UniProt P42336: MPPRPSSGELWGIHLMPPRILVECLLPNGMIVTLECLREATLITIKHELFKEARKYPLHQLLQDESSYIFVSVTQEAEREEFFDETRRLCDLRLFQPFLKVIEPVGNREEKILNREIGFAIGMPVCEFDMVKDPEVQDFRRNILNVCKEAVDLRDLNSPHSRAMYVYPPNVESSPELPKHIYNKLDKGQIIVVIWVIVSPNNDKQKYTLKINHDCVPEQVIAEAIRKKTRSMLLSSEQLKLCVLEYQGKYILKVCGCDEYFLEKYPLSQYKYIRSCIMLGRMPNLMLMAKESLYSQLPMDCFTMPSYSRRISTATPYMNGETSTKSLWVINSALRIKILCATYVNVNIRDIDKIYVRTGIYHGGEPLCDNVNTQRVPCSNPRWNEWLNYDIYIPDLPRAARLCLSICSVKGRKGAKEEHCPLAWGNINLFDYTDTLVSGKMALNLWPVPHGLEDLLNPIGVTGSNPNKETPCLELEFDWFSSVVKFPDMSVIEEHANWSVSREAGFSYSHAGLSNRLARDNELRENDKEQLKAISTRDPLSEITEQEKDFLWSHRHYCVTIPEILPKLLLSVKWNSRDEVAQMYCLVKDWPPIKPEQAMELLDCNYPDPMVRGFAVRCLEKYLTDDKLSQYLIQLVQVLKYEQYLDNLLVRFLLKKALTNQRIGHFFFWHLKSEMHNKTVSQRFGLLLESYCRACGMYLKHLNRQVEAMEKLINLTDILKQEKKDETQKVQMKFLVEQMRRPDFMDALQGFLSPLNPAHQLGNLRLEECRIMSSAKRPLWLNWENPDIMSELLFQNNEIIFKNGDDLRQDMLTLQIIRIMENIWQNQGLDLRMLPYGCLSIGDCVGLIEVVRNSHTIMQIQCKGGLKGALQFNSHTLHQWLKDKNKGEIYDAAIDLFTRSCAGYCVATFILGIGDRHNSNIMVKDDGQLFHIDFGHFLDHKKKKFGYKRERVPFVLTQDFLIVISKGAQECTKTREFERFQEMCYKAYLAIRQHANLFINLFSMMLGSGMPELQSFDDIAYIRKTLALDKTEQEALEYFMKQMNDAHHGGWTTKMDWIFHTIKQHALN
UniProt P42338: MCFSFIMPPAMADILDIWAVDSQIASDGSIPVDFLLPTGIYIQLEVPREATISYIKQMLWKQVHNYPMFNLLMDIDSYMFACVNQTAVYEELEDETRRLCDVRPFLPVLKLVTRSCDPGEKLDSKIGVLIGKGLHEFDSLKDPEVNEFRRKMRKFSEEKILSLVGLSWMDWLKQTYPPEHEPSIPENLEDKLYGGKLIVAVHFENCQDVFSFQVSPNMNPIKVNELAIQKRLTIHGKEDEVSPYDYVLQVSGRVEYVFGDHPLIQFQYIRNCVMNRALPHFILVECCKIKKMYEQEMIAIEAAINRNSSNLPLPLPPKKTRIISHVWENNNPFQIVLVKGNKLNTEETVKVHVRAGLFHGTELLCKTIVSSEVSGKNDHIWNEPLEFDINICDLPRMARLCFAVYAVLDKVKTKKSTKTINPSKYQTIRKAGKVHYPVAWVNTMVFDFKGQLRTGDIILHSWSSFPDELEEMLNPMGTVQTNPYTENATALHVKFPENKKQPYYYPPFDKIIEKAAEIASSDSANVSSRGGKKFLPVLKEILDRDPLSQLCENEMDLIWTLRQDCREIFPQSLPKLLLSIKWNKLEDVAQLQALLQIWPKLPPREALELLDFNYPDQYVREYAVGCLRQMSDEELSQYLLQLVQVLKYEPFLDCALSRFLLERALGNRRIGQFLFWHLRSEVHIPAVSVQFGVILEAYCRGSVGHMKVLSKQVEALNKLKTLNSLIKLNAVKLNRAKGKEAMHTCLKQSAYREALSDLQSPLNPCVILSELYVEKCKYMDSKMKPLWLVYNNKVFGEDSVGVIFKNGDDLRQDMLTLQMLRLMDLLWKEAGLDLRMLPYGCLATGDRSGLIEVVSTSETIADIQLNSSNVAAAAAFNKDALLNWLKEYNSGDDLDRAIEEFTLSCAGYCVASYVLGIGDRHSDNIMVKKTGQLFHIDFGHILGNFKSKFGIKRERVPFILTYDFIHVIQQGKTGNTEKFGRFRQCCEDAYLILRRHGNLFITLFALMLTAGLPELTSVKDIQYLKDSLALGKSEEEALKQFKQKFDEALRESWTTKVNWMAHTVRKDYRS
UniProt P42337: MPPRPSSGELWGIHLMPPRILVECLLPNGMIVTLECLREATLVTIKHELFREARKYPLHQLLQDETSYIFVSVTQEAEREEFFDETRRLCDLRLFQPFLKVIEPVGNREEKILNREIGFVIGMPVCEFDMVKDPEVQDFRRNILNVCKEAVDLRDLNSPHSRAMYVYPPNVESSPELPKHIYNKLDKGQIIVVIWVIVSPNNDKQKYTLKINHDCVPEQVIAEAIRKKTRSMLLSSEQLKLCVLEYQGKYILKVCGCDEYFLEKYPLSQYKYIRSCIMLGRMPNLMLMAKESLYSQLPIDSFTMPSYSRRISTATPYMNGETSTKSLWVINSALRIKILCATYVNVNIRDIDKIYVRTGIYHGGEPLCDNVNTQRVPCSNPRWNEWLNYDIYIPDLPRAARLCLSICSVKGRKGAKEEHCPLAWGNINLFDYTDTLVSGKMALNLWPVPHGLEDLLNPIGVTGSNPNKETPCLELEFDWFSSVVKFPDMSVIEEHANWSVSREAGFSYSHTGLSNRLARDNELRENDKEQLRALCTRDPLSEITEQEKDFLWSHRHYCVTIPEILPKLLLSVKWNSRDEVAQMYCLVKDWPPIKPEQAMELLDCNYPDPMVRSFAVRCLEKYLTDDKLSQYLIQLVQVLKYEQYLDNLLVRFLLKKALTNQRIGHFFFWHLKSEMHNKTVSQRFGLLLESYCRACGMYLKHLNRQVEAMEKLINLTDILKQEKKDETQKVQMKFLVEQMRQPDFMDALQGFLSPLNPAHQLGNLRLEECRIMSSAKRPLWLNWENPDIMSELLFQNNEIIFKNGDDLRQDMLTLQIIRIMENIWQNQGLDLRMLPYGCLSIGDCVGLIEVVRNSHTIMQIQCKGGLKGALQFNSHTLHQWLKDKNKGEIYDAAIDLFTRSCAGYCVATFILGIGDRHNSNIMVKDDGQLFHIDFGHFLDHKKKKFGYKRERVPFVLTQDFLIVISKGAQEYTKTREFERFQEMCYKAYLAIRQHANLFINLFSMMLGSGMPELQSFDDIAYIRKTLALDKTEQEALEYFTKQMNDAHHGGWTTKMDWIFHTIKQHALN
UniProt Q8BTI9: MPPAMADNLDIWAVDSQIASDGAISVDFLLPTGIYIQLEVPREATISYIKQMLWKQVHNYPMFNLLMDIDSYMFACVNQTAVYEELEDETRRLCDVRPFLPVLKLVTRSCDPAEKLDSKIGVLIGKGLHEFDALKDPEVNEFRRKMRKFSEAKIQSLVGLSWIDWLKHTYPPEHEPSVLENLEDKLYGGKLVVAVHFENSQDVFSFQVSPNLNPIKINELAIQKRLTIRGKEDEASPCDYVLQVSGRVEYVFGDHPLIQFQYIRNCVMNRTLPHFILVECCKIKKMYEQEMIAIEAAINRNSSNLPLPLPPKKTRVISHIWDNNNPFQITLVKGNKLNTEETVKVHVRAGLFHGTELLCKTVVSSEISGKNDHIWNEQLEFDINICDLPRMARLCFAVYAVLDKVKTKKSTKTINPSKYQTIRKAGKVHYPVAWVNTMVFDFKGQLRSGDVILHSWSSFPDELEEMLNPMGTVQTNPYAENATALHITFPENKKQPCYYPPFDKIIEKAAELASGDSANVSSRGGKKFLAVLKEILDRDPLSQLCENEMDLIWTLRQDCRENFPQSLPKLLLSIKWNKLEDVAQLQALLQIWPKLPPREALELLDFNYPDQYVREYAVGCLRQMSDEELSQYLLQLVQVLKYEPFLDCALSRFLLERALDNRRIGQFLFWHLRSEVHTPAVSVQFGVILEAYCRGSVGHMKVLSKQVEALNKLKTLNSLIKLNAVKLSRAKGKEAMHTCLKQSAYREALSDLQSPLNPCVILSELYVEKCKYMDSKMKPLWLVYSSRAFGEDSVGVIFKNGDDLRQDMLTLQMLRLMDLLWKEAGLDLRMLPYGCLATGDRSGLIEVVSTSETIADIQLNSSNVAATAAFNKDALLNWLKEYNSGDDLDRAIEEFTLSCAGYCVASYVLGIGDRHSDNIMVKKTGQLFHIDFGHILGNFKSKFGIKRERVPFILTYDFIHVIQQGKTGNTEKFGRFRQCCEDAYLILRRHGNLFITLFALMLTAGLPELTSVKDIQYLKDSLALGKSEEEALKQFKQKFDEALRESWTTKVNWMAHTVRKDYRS
UniProt P13020: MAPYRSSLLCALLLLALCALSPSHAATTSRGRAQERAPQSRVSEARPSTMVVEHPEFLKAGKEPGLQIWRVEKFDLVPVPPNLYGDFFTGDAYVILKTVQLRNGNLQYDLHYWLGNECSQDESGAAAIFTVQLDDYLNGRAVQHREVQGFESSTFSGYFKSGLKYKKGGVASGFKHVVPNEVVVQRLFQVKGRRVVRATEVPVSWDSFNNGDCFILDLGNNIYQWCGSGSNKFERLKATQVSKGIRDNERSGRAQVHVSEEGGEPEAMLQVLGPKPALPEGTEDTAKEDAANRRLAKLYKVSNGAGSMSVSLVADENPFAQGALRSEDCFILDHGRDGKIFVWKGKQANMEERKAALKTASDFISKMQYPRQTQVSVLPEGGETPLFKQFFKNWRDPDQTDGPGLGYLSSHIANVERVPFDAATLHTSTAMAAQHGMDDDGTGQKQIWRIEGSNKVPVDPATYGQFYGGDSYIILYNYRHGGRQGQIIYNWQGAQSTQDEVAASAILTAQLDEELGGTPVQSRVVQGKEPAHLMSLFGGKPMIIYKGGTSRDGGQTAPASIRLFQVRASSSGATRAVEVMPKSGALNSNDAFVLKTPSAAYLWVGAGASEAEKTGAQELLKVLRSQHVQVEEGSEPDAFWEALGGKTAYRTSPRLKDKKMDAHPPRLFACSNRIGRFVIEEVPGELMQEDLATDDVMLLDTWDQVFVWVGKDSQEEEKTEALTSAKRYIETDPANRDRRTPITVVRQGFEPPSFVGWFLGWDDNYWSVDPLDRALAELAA
UniProt P06396: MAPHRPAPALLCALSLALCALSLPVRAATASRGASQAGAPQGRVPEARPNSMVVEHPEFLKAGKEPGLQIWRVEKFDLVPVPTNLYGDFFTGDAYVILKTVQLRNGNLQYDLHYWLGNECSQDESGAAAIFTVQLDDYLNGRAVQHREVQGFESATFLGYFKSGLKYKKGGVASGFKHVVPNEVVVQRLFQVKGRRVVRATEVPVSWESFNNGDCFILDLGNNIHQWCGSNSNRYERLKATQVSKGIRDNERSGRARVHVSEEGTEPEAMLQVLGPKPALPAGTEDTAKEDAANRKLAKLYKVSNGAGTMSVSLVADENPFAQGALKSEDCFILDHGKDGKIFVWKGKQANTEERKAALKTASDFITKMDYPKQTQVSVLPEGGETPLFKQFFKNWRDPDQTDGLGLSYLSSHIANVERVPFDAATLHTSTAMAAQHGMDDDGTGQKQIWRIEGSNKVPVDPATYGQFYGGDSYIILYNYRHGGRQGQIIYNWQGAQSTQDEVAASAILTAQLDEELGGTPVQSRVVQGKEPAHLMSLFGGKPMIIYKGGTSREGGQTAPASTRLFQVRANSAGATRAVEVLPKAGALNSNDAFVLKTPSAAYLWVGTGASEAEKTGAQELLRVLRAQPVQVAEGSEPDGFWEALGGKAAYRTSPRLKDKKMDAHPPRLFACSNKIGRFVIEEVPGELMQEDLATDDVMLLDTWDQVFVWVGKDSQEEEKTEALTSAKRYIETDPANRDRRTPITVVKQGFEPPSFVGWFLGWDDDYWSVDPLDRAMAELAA

These are yes or no findings as the source states them, for the method shown. In cells and extracts the contact can be indirect. For some of these results: A result given as binding can be weak or reduced; the word gives no strength.

What all share (assay): co-IP; endogenous proteins of murine and human myocardial tissue; immunoprecipitation of gelsolin, and reciprocally with antibodies against p110α or p110β, then immunoblotting; performed as described in refs 4, 57
On the technique in general: In western blotting, separated proteins are transferred to a membrane and probed.

For experiment [1], the target named is p110α (human heart) (human (endogenous in human myocardial tissue)) (UniProt P42336).
In experiment [2] the target is p110β (human heart) (human (endogenous in human myocardial tissue)) (UniProt P42338).
The target of experiment [3] is p110α (murine heart) (mouse (endogenous in murine myocardial tissue)) (UniProt P42337).
Experiment [4] addresses p110β (murine heart) (mouse (endogenous in murine myocardial tissue)) (UniProt Q8BTI9).
Experiment [5] has as its target gelsolin (murine heart) (mouse (endogenous in murine myocardial tissue)) (UniProt P13020).
The target of experiment [6] is gelsolin (human heart) (human (endogenous in human myocardial tissue)) (UniProt P06396).

“gelsolin (human heart) (from UniProt P06396)”: the binding result in experiment [1] is reported as “binds”; in experiment [2], “no binding”. Consider “gelsolin (murine heart) (from UniProt P13020)”, for which the binding entry is “binds” in experiment [3] and “no binding” in experiment [4]. For “p110α (murine heart) (from UniProt P42337 1-1068) (enzyme)”, the binding result in experiment [5] is on record as “binds”.

Take “p110β (human heart) (from UniProt P42338 1-1070) (enzyme)”: the binding result in experiment [6] is “no binding”. Consider “p110β (murine heart) (from UniProt Q8BTI9 1-1064) (enzyme)”, for which, in experiment [5], the binding entry is “no binding”.
